Data reported in US7776827B2 (ImmuneRegen Biosciences, Inc., priority 2007, dated 2010).
Not every detail of the peptide structures is certain; ends, links or a residue may be inferred.

Tested on: white blood cell, lymphocyte, monocyte, granulocyte and platelet levels
Experiment: CBC (blood differentials) of X-ray irradiated mice treated intranasally
Format: in vivo, Balb/c mice
[1] = 48 hours post exposure, treated post-radiation

CC(C)C[C@H](NC(=O)CN(C)C(=O)[C@H](Cc1ccccc1)NC(=O)[C@H](Cc1ccccc1)NC(=O)[C@H](CCC(N)=O)NC(=O)[C@H](CCC(N)=O)NC(=O)[C@@H]1CCCN1C(=O)[C@H](CCCCN)NC(=O)[C@@H]1CCCN1C(=O)[C@@H](N)CCCNC(=N)N)C(=O)N[C@@H](CCS(C)(=O)=O)C(N)=O [HOMSPERA®]
lymphocyte counts normalized to non-irradiated control (24 hours post exposure, treated post-radiation): about 17% | white blood cell counts normalized to non-irradiated control (24 hours post exposure, treated prior to radiation): about 19% | monocyte levels normalized to non-irradiated control (48 hours post exposure, pre-radiation treatment): ~75% | lymphocyte levels normalized to non-irradiated control [1]: about 18% | monocyte levels normalized to non-irradiated control [1]: about 120% | white blood cell counts normalized to non-irradiated control [1]: about 38% | white blood cell counts normalized to non-irradiated control (96 hours post exposure, treated following radiation): about 12%
